From patent US20040156820A1, “Adjuvant combination formulations” (priority 2000, published 2004)
At least one peptide structure holds a part that was inferred or is arguable (an end, a ring closure or a residue).

How the values were obtained:
Assay type in all cases: in vivo, cynomologous monkeys (Macaca fagscicularis)
[1] = system: C4(E9V)-V389.6P peptide; experiment: Serum anti-C4(E9V)-V389.6P peptide IgG antibody titers by ELISA; settings: cynomologous monkeys, through 25 weeks; FIG. 7
[2] = system: C4(E9V)-V389.6P peptide; experiment: Nasal wash anti-C4(E9V)-V389.6P peptide IgG antibody titers by ELISA; settings: cynomologous monkeys; FIG. 9
[3] = system: C4(E9V)-V389.6P peptide; experiment: Cervicovaginal lavage anti-C4(E9V)-V389.6P peptide IgG antibody titers by ELISA; settings: cynomologous monkeys; FIG. 8

CC[C@H](C)[C@H](NC(=O)[C@H](CO)NC(=O)[C@H](CC(C)C)NC(=O)[C@H](CCCNC(=N)N)NC(=O)[C@H](CCC(=O)O)NC(=O)[C@H](CCCNC(=N)N)NC(=O)[C@@H](NC(=O)[C@H](CC(N)=O)NC(=O)[C@H](CC(N)=O)NC(=O)[C@H](CC(N)=O)NC(=O)[C@@H]1CCCN1C(=O)[C@H](CCCNC(=N)N)NC(=O)[C@@H](NC(=O)[C@H](C)NC(=O)[C@H](Cc1ccc(O)cc1)NC(=O)[C@H](CCSC)NC(=O)[C@H](C)NC(=O)[C@H](CCCCN)NC(=O)CNC(=O)[C@@H](NC(=O)[C@@H](NC(=O)[C@H](CCC(N)=O)NC(=O)[C@H](Cc1c[nH]c2ccccc12)NC(=O)[C@H](CCSC)NC(=O)[C@H](CC(N)=O)NC(=O)[C@@H](NC(=O)[C@@H](NC(=O)[C@H](CCC(N)=O)NC(=O)[C@@H](N)CCCCN)[C@@H](C)CC)[C@@H](C)CC)C(C)C)C(C)C)[C@@H](C)O)[C@@H](C)O)C(=O)NCC(=O)N1CCC[C@H]1C(=O)NCC(=O)N[C@@H](CCCNC(=N)N)C(=O)N[C@@H](C)C(=O)N[C@@H](Cc1ccccc1)C(=O)N[C@@H](Cc1ccc(O)cc1)C(=O)N[C@@H](C)C(=O)N[C@@H](CCCNC(=N)N)C(=O)N[C@@H](CCCNC(=N)N)C(=O)O [C4(E9V)-V389.6P peptide alone]
serum anti-C4(E9V)-V389.6P IgG antibody titers [1]: failed to demonstrate serum anti-C4(E9V)-V389.6P IgG antibody titers higher than pre-immune levels | anti-C4(E9V)-V389.6P IgG antibody titers in nasal washes [2]: failed to demonstrate | anti-C4(E9V)-V389.6P IgG antibody titers in cervicovaginal lavage samples [3]: higher than pre-immune levels only after the fourth immunization, but declined thereafter
